Results: patent publication US11491155B2, “Salt of a pyrimido[6,1-A]isoquinolin-4-one compound” (VERONA PHARMA PLC, priority 2015, dated 2022)
Where a name gives a salt, the structure may show the parent alone.

Test: Jet milling of RPL554 salts (Sturtevant jet-mill, SEM)
Conditions: grinding pressure 60 PSI, venture pressure 80 PSI

COc1cc2c(cc1OC)-c1c/c(=N\c3c(C)cc(C)cc3C)n(CCNC(N)=O)c(=O)n1CC2 [Benzenesulfonate, RPL554 benzenesulfonate]
Ease of Milling (listed as benzenesulfonate salt): Intermediate

COc1cc2c(cc1OC)-c1c/c(=N\c3c(C)cc(C)cc3C)n(CCNC(N)=O)c(=O)n1CC2 [Sulfate, RPL554 sulfate]
Ease of Milling (listed as sulfate salt): Hard

COc1cc2c(cc1OC)-c1c/c(=N\c3c(C)cc(C)cc3C)n(CCNC(N)=O)c(=O)n1CC2 [Hydrochloride, RPL554 hydrochloride]
Ease of Milling (listed as hydrochloride salt, hydrochloride): Easy

COc1cc2c(cc1OC)-c1c/c(=N\c3c(C)cc(C)cc3C)n(CCNC(N)=O)c(=O)n1CC2 [Ethanesulfonate, RPL554 ethanesulfonate]
Ease of Milling (listed as ethanesulfonate salt): Easy

COc1cc2c(cc1OC)-c1c/c(=N\c3c(C)cc(C)cc3C)n(CCNC(N)=O)c(=O)n1CC2 [Methanesulfonate, RPL554 methanesulfonate]
Ease of Milling (listed as mesylate salt): Intermediate

COc1cc2c(cc1OC)-c1c/c(=N\c3c(C)cc(C)cc3C)n(CCNC(N)=O)c(=O)n1CC2 [Ethane-1,2-disulfonate, RPL554 ethane-1,2-disulfonate]
Ease of Milling (listed as ethane-1,2-disulfonate hemi-salt): Intermediate

COc1cc2c(cc1OC)-c1c/c(=N\c3c(C)cc(C)cc3C)n(CCNC(N)=O)c(=O)n1CC2 [Hydrobromide, RPL554 hydrobromide]
Ease of Milling (listed as hydrobromide salt, hydrobromide): Easy

COc1cc2c(cc1OC)-c1c/c(=N\c3c(C)cc(C)cc3C)n(CCNC(N)=O)c(=O)n1CC2 [p-Toluenesulfonate, RPL554 p-toluenesulfonate]
Ease of Milling (listed as p-toluenesulfonate salt): Intermediate
